Part of at least one peptide drawing is inferred or uncertain, most often the ends. Peptide text beside a SMILES is read from it.
Experiments:
[1] = system: Aggregatibacter actinomycetemcomitans; assay: Inhibiting growth of periodontitis-causing bacteria (absorbance at 600 nm); format: cell-based; conditions: Aa, at 250 μM or more, 24 hours
[2] = system: Porphyromonas gingivalis; assay: as above; format: cell-based; conditions: Pg, at 100 μM or more, 24 hours

C[C@@H](O)[C@H](NC(=O)[C@H](CO)NC(=O)[C@H](CS)NC(=O)[C@H](CCCCN)NC(=O)CN)C(=O)N[C@@H](CCCNC(=N)N)C(=O)NCC(=O)N[C@@H](CCCNC(=N)N)C(=O)N[C@@H](CCCCN)C(=O)N[C@@H](CO)C(=O)N[C@@H](CO)C(=O)N[C@@H](CCCNC(=N)N)C(=O)N[C@@H](CCCNC(=N)N)C(=O)N[C@@H](CCCCN)C(=O)N[C@@H](CCCCN)C(N)=O [SEQ ID NO: 1, GKCSTRGRKSSRRKK] (H-GKCSTRGRKSSRRKK-NH2; N-terminus and C-terminus assumed)
survival rate of bacteria [1]: less than or equal to 50% | survival rate of bacteria [2]: less than or equal to 50%

Source: patent US20250134667A1, “BIOABSORBABLE AND PHOTOCURABLE COMPOSITION, BIOABSORBABLE GUIDED TISSUE REGENERATION COMPOSITION, AND GRAFTING METHOD USING SAME” (priority 2022, published 2025)
